Measured values: PubChem BioAssay AID1688 (National Center for Advancing Translational Sciences (NCATS), 2009)
Screen size: about 220,000 compounds; about 2,400 (1.1%) were called active. Inconclusive results, whose numbers are uncertain, are shown with a selection of clear calls. Calls come from the whole dose curve; as a rule, active = well fitted inhibition curve with a large enough effect; inconclusive = small, poorly fitted or top-dose-only effect, or effect the other way; inactive = no such curve, though single readings can be large or run the other way. Potencies of inconclusive entries are doubtful fits and often do not repeat.

Assay: qHTS Multiplex Assay to Identify Dual Action Probes in a Cell Model of Huntington: Aggregate Formation (GFP); note: nearly all actives have a fitted effect of over 60% in size
Settings: PC12 HttQ103-GFP aggregates, Acumen cytometry, 40 h; activity change, negative = inhibition: at 46.1 µM (top of the series) unless noted
From the text: NIH Chemical Genomics Center [NCGC]
NIH Molecular Libraries Probe Production centers Network [MLPCN]
Assay Submitter (PI): Wei Zheng
Huntington's disease is a neurodegenerative disorder caused by a trinucleotide repeat expansion in Exon 1 of the Huntingtin gene. The CAG trinucleotide encodes glutamine and polyglutamine expansions cause cell death in selective areas of the brain. Huntington polyglutamine repeats have the tendency to form aggregates which are observable in later stages of the disease. The exact nature of the aggregates, whether toxic, protective, or insignificant, is unclear.
A stable PC12 cell line containing a gene fusion of Exon 1 of the Huntingtin gene linked to GFP under the control of the inducible ecdysone promoter were used as the cell-based model of Huntington Disease for high throughput screening. Exon 1 of the Huntingtin gene contained an expansion of 103 polyglutamines (Q103) which, when expressed, caused cell death and distinct, bright GFP aggregates. The amount of cell death and the size and intensity of GFP aggregates increased over time and induction level. The cell death were quantified with a measurement of ATP content in the cells. A maximal 40-50% of cell death was observed when the Huntington gene was induced in this cell line.
We optimized this assay in a homogeneous 1536 well format. A quantitative high throughput screen (qHTS) was conducted on the PC12 cells which were induced to express the toxic fusion construct. Small molecules which reduced aggregate formation were identified bu using a laser scanning cytometer calibrated to detect the aggregates in cell lysates.
PC12 cells stably containing a construct with an ecdysone inducible promoter expressing GFP fused to the exon 1 of HTTQ103 (Huntington protein which containing a 103 ployglutamine expansion) were used.
NCGC Assay Protocol Summary:
Sequence, Parameter, Description
1, Reagent, 5 uL 1500 cells/well 1536 TC treated White clear bottom plate
2, Compound, 23 nL Tebufenozide inducer (100 nM final) to all columns
3, Compound, 23 nL 40 uM to 0.5 nM Libraries
5, Reagent, 5 ul ATPLite cell death assay reagent
6, Detector, Aggregate quantitation by Acumen Explorer
Media consisted of phenol red free DMEM + 5% equine serum (Hyclone # SH30072.03 ), 5% supplemented Bovine Calf Serum (Hyclone # SH30074.03 ), 1x pen/strep, no G418
Acumen Explorer was used to quantitate GFP aggregates using the following criteria: […] laser excitation, 500-530 nm emission, the PMT was set at a voltage of 450 volts, and objects ranging in size of […] in size having a signal of 6 STDEV above background were collected.
Control columns: 1 = DMSO, 2= 2 uM teb dilns (1:1), 4 = 100 nM Teb inducer. Sample columns received 100 nM Teb.
% is set by controls: 0 for no effect and ±100 for the full control effect; potency is the fitted concentration of half-maximal effect.

| SMILES | Potency | activity change, negative = inhibition |
| --- | --- | --- |
| c1ccc(CCCCNCC2COc3ccccc3O2)cc1 (centres undefined) | inactive |  |
| CC(=O)Nc1ccc(S(=O)(=O)N(C)CC(=O)OCC(=O)Nc2ccc3c(c2)OCO3)cc1 | inconclusive: 6.31 µM [activator, single point] |  |
| CCSc1ccccc1C(=O)N1CCN(Cc2ccc3c(c2)OCO3)CC1 | inconclusive: 10 µM [inhibitor, partial curve] |  |
| COc1ccc(CN(C(=O)c2ccco2)c2ccc(Br)cc2)cc1OC | inactive |  |
| Cn1cccc1Cc1nnc(SCC(=O)Nc2ccccc2F)n1CCc1ccccc1 | inactive |  |
| Cn1c(SCc2c(F)cccc2Cl)nc2c(c1=O)SCC2 | inconclusive: 31.6 µM [inhibitor, single point] |  |
| COC(=O)c1cc(CSc2nc3ccc(C)cc3[nH]2)oc1C | inconclusive: 14.1 µM [inhibitor, single point] |  |
| CCN(CC(=O)Nc1sc2c(c1C#N)CCCC2)Cc1nc2ccccc2c(=O)[nH]1 | inactive |  |
| O=[N+]([O-])c1ccc(/C=C2\CCC(C3=CCCC3)=C2N2CCOCC2)cc1 | inconclusive: 35.5 µM [activator, single point] |  |
| COC(=O)c1ccccc1NC(=O)CSc1nnc(Cc2ccc(Cl)cc2)o1 | inactive |  |
| COc1ccccc1-n1c(N)c(C(=O)NCC2CCCO2)c2nc3ccccc3nc21 (centres undefined) | inconclusive: 28.2 µM [inhibitor, partial curve] |  |
| CCC(CC)C(=O)N1N=C(c2ccc(NS(C)(=O)=O)cc2)CC1c1ccccc1 (centres undefined) | inconclusive: 5.62 µM [activator, single point] |  |
| CS(=O)(=O)N(CC(=O)NCc1ccco1)c1ccccc1Cl | inconclusive: 1.58 µM [activator, partial curve] |  |
| Cc1cc(Cl)c(S(=O)(=O)N2CCSCC2)cc1OCC(N)=O | inconclusive: 2.82 µM [inhibitor, partial curve] |  |
| NC(=O)c1ccc(NC(=O)c2cccc3c2OCCCO3)cc1 |  | inactive: -37.9% [at 9.22 µM] |
| CCn1c(SCC(=O)Nc2nccs2)nnc1-c1ccccc1 | inconclusive: 3.98 µM [activator, single point] |  |
| COc1ccccc1NC1=C(N2CCCCC2)C(=O)c2ccccc2C1=O | active: 12.6 µM |  |
| CCN(CC)C(=O)c1sc(NC(=O)c2ccc3c(c2)OCO3)c(C#N)c1C | inactive |  |
| O=S(=O)(Nc1nc2ccccc2nc1N1CCc2ccccc2C1)c1ccc(Cl)cc1 | inconclusive: 35.5 µM [inhibitor, single point] |  |
| CC(=O)N1c2ccc3ccccc3c2C(C)CC12CCCCC2 (centres undefined) | inconclusive: 35.5 µM [inhibitor, single point] |  |
| CCOC(=O)c1sc(NC(=O)C(C)(C)C)cc1C | inconclusive: 0.1 µM [activator, partial curve, poor fit] |  |
| COc1ccc(Nc2cc(C)c3c(O)cccc3n2)cc1 |  | inactive: -19.2% [at 9.22 µM] |
| CC[C@@]1(O)C(=O)OCc2c1cc1n(c2=O)Cc2cc3c([N+](=O)[O-])cccc3nc2-1 | inconclusive: 20 µM [inhibitor, partial curve, poor fit] |  |

Structures listed so far that have an NH in an aromatic ring:

| SMILES | Potency | activity change, negative = inhibition |
| --- | --- | --- |
| COC(=O)c1cc(CSc2nc3ccc(C)cc3[nH]2)oc1C | inconclusive: 14.1 µM [inhibitor, single point] |  |
| CCN(CC(=O)Nc1sc2c(c1C#N)CCCC2)Cc1nc2ccccc2c(=O)[nH]1 | inactive |  |

Following part:

| SMILES | Potency | activity change, negative = inhibition |
| --- | --- | --- |
| O=C(c1cc(-c2ccc(F)cc2)on1)N1CCCC1 | inconclusive: 11.2 µM [inhibitor, single point] |  |
| Cc1ccc(-c2nnn(CC(=O)N(Cc3cccs3)C(C(=O)NC3CCCC3)c3ccncc3)n2)cc1 (centres undefined) | inconclusive: 25.1 µM [inhibitor, single point] |  |
| Cn1nc(C(C)(C)C)cc1C(=O)Nc1nc2c(s1)C(=O)CC(C)(C)C2 | inactive |  |
| CC(C)COCC(CN(Cc1ccccc1)c1ccccc1)N1CCCC1 (centres undefined) | inconclusive: 28.2 µM [inhibitor, partial curve, poor fit] |  |
| Oc1ccccc1N1CCN(c2ncccn2)CC1 | inconclusive: 5.62 µM [activator, single point] |  |
| O=C(Nc1ccc(F)cc1)C(c1ccccc1)N1CCN(S(=O)(=O)c2c(F)cccc2F)CC1 (centres undefined) | inactive |  |
| COc1ccc(-n2c(/C=C(\C)O)nc(=O)c3c(C)cc(C)nc32)cc1 | inconclusive: 1.26 µM [inhibitor, partial curve] |  |
| CCn1nccc1C(=O)Nc1nc2ccccc2n1CCN1CCCCC1 | inconclusive: 0.501 µM [activator, full curve, poor fit] |  |
| O=C1CCCN1CCCN=c1c([N+](=O)[O-])nn(-c2ccc(Cl)cc2)n1O | inconclusive: 35.5 µM [inhibitor, single point] |  |
| O=C(NC1CCc2ccccc21)C1CCN(S(=O)(=O)c2ccc(Cl)cc2)CC1 (centres undefined) | inconclusive: 5.62 µM [inhibitor, single point] |  |
| CC(=O)c1cccc(NC(=O)Nc2ccc(C(=O)N3CCOCC3)cc2)c1 | active: 10 µM |  |
| Cc1ccc(S(=O)(=O)Nc2ccc3nc(C)sc3c2)cc1 | active: 14.1 µM |  |
| CC(C)(C)C(=O)Nc1ccc(-c2cn3ccsc3n2)cc1 | inactive |  |
| CCSc1ccc2nnc(-c3ccc(F)cc3)n2n1 | inconclusive: 12.6 µM [inhibitor, single point] |  |
| CCCCC(=O)Nc1ccc(C(=O)OC2CCCCC2)cc1 | inconclusive: 35.5 µM [inhibitor, single point] |  |
| S=c1[nH]nc(COc2ccccc2)n1/N=C/C=C/c1ccco1 |  | inactive: 26.1% [at 9.22 µM] |
| O=c1c2cc(Cl)ccc2nc(-c2ccccc2)n1O | inconclusive: 31.6 µM [inhibitor, single point] |  |
| COc1ccccc1C(=O)N1CCCN(C(=O)c2ccccc2OC)CC1 | inconclusive: 7.08 µM [inhibitor, full curve, poor fit] |  |
| O=C(CNC(=O)c1ccccc1Br)N/N=C/c1cc(Br)ccc1O | active: 3.55 µM |  |
| O=C(NCCN1C(=O)S/C(=C\c2ccccc2F)C1=O)C1CCCN1C(=O)c1cccs1 (centres undefined) | inconclusive: 35.5 µM [activator, single point] |  |
| C=CCn1c(C)cc(C(=O)COC(=O)c2ccc3c(c2)NC(=O)CS3)c1C | inactive |  |
| CC(OC(=O)C1CC1)C(=O)Nc1ccc([N+](=O)[O-])cc1Cl (centres undefined) | inactive |  |
| O=C(COC(=O)c1c2c(nc3ccccc13)/C(=C/c1cccc([N+](=O)[O-])c1)CCC2)NC1CCS(=O)(=O)C1 (centres undefined) | inconclusive: 5.62 µM [activator, single point] |  |

| SMILES | Potency | activity change, negative = inhibition |
| --- | --- | --- |
| Cc1sc(NC(=O)/C=C/c2ccc3c(c2)OCO3)nc1-c1ccccc1 | inconclusive: 11.2 µM [inhibitor, single point] |  |
| CN(CC1CCCO1)S(=O)(=O)c1ccc(C(=O)Nc2nc(-c3ccccn3)cs2)cc1 (centres undefined) | inconclusive: 7.94 µM [inhibitor, partial curve] |  |
| Cn1c(NC(=O)c2ccc(S(=O)(=O)N3CCCCC3)cc2)cc(=O)n(C)c1=O | inconclusive: 7.94 µM [inhibitor, partial curve] |  |
| O=C(c1ccc(CS(=O)(=O)c2ccc(Br)cc2)o1)N1CCCC1 | inactive |  |
| O=S(Cc1ccc(Br)cc1)Cc1nnc(SCc2c(Cl)cccc2Cl)n1-c1ccccc1 (centres undefined) | active: 22.4 µM |  |
| CN=c1scc(-c2ccco2)n1/N=C/c1ccc(O)c(O)c1 | active: 8.91 µM |  |
| CCOC(=O)c1c(C)[nH]c(C(=O)CSc2nnc(CC(C)c3ccccc3)o2)c1C (centres undefined) | inconclusive: 0.631 µM [inhibitor, full curve, poor fit] |  |
| O=C(CN1C(=O)c2ccccc2C1=O)NCCc1c[nH]c2ccccc12 | inactive |  |
| Cc1ccnc(NC(c2ccncc2)c2c(C)[nH]c3ccccc23)c1 (centres undefined) | inconclusive: 35.5 µM [inhibitor, single point] |  |
| CCn1c2ccccc2c2cc(NC(=O)COC(=O)c3ccccc3Br)ccc21 | inconclusive: 7.94 µM [activator, partial curve, poor fit] |  |
| CS(=O)(=O)c1ccc(Sc2nc3ccccc3s2)c([N+](=O)[O-])c1 | inconclusive: 35.5 µM [inhibitor, single point] |  |
| Cc1cc(/C=C2\C(=N)N3N=C(c4ccco4)SC3=NC2=O)c(C)n1Cc1ccccc1 |  | inactive: -14.6% [at 9.22 µM] |
| Cc1ccc(C(=O)NC(=S)Nc2nc(-c3cccc([N+](=O)[O-])c3)cs2)c(Cl)c1 | inconclusive: 35.5 µM [inhibitor, single point] |  |
| NC(=O)c1ccc(NC(=O)CN2CCN(c3ccc(Cl)cc3)CC2)cc1 | inconclusive: 1.58 µM [activator, partial curve] |  |
| Nc1c(C(=O)Nc2cccc(F)c2)nnn1-c1cccc(C(F)(F)F)c1 | inactive |  |
| O=C(Nc1cccc(F)c1)N1CC=C(c2ccc(Cl)cc2)CC1 | inconclusive: 11.2 µM [inhibitor, single point] |  |
| O=C(c1cc([N+](=O)[O-])ccc1N1CCCC1)N1CCCC1 |  | inactive: -1.35% [at 9.22 µM] |
| CCn1c(=O)c(-c2nc3ccccc3[nH]2)c(O)c2ccccc21 | inconclusive: 10 µM [inhibitor, partial curve] |  |
| CCN(CC)CCNc1ccnc2cc(Cl)ccc12 | inconclusive: 5.62 µM [inhibitor, partial curve] |  |
| CCN(CC)C(=O)Cn1c(=O)c2ccccc2n2c(=S)sc(-c3cccc(C)c3)c12 | inconclusive: 31.6 µM [activator, single point] |  |
| CCOC(=O)c1cnc2c(OC)cccc2c1N1CCN(c2ccccc2OC)CC1 | inconclusive: 35.5 µM [inhibitor, single point] |  |
| CCOC(=O)N1CCN(C(=O)CSc2ccccc2)CC1 | inactive |  |
| COC(=O)CCC(=O)Nc1sc(Cc2ccccc2)c(C)c1C(N)=O |  | inactive: 4.79% [at 9.22 µM] |
